Data as given in PubChem BioAssay AID1259254 (NCATS, 2017)

- Aim: 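Gene knock-downs that lead to re-replication, shown by excess G2 DNA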 (primary screen)
- System: human HCT116 colorectal cancer cells
- Reagent: single siRNA against human genes
- Time to read-out: 3 days
- Measured: 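Nuclei stained with Hoechst and imaged; cell-cycle phase assigned by DNA content; G2 share scaled per plate, non-targeting siRNA 0%, GMNN siRNA 100%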
- Direction: G2 robust z-score: higher = more G2 cells, more excess DNA replication
- Hit rule: 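Active siRNAs have a G2 robust z of 5 or more median absolute deviations over the median, which in these data means about 38% or higher of GMNN control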
This is a random part of about 59,000 reagents. About 1,550 of all reagents (2.6%) were called active. 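G2 share is only a proxy for re-replication; each gene was hit by three separate siRNAs, and active genes were retested.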 The numbers tell different reagents against one gene apart. Not all columns of the deposit are shown. Not stated in the record: the amount of reagent.

gene symbol | reagent no. | G2 robust z-score | Call
FSCN2 (fascin actin-bundling protein 2, retinal) | 1 | 2.01 | inactive
FSCN2 (fascin actin-bundling protein 2, retinal) | 2 | -0.297 | inactive
FSCN2 (fascin actin-bundling protein 2, retinal) | 3 | -0.438 | inactive
RPLP1P7 (ribosomal protein lateral stalk subunit P1 pseudogene 7) | 1 | 0.0887 | inactive
RPLP1P7 (ribosomal protein lateral stalk subunit P1 pseudogene 7) | 2 | 0.85 | inactive
RPLP1P7 (ribosomal protein lateral stalk subunit P1 pseudogene 7) | 3 | -0.402 | inactive
SLC34A3 | 1 | 1.26 | inactive
SLC34A3 | 2 | 4.54 | inactive
SLC34A3 | 3 | -0.0999 | inactive
MLKL (mixed lineage kinase domain like pseudokinase) | 1 | 0.114 | inactive
MLKL (mixed lineage kinase domain like pseudokinase) | 2 | 0.819 | inactive
MLKL (mixed lineage kinase domain like pseudokinase) | 3 | -1.45 | inactive
THNSL1 (threonine synthase like 1) | 1 | -0.618 | inactive
THNSL1 (threonine synthase like 1) | 2 | -1.18 | inactive
THNSL1 (threonine synthase like 1) | 3 | -0.531 | inactive
KRT12 (keratin 12) | 1 | -0.906 | inactive
KRT12 (keratin 12) | 2 | 1.55 | inactive
KRT12 (keratin 12) | 3 | 1.23 | inactive
TMEM14DP (transmembrane protein 14D, pseudogene) | 1 | 0.91 | inactive
TMEM14DP (transmembrane protein 14D, pseudogene) | 2 | 13 | active
TMEM14DP (transmembrane protein 14D, pseudogene) | 3 | -0.266 | inactive
MIR9-3HG (MIR9-3 host gene) | 1 | 0.726 | inactive
MIR9-3HG (MIR9-3 host gene) | 2 | -0.248 | inactive
MIR9-3HG (MIR9-3 host gene) | 3 | -0.538 | inactive
ERVFRD-1 (endogenous retrovirus group FRD member 1, envelope) | 1 | -0.597 | inactive
ERVFRD-1 (endogenous retrovirus group FRD member 1, envelope) | 2 | 0.524 | inactive
ERVFRD-1 (endogenous retrovirus group FRD member 1, envelope) | 3 | 0.117 | inactive
LINC01085 (long independently transcribed non-coding RNA 1085) | 1 | -0.664 | inactive
LINC01085 (long independently transcribed non-coding RNA 1085) | 2 | 1.4 | inactive
LINC01085 (long independently transcribed non-coding RNA 1085) | 3 | 0.736 | inactive
TMEM198B (transmembrane protein 198B (pseudogene)) | 1 | 1.4 | inactive
TMEM198B (transmembrane protein 198B (pseudogene)) | 2 | -0.68 | inactive
TMEM198B (transmembrane protein 198B (pseudogene)) | 3 | 9.48 | active
SDCBP (syndecan binding protein) | 1 | -0.528 | inactive
SDCBP (syndecan binding protein) | 2 | 0.615 | inactive
SDCBP (syndecan binding protein) | 3 | -0.339 | inactive
POMC (proopiomelanocortin) | 1 | -1.03 | inactive
POMC (proopiomelanocortin) | 2 | -0.636 | inactive
POMC (proopiomelanocortin) | 3 | -0.352 | inactive
LAMTOR3 (late endosomal/lysosomal adaptor, MAPK and MTOR activator 3) | 1 | -0.665 | inactive
LAMTOR3 (late endosomal/lysosomal adaptor, MAPK and MTOR activator 3) | 2 | -1.26 | inactive
LAMTOR3 (late endosomal/lysosomal adaptor, MAPK and MTOR activator 3) | 3 | 0.735 | inactive
RGS18 (regulator of G protein signaling 18) | 1 | 6.54 | active
RGS18 (regulator of G protein signaling 18) | 2 | -0.44 | inactive
RGS18 (regulator of G protein signaling 18) | 3 | 4.04 | inactive

Records listed so far whose gene name starts with F or f:
gene symbol | reagent no. | G2 robust z-score | Call
FSCN2 (fascin actin-bundling protein 2, retinal) | 1 | 2.01 | inactive
FSCN2 (fascin actin-bundling protein 2, retinal) | 2 | -0.297 | inactive
FSCN2 (fascin actin-bundling protein 2, retinal) | 3 | -0.438 | inactive

Next records follow.
gene symbol | reagent no. | G2 robust z-score | Call
USP14 (ubiquitin specific peptidase 14) | 1 | -0.822 | inactive
USP14 (ubiquitin specific peptidase 14) | 2 | -0.365 | inactive
USP14 (ubiquitin specific peptidase 14) | 3 | 0.366 | inactive
CFAP43 (cilia and flagella associated protein 43) | 1 | -0.366 | inactive
CFAP43 (cilia and flagella associated protein 43) | 2 | -0.642 | inactive
CFAP43 (cilia and flagella associated protein 43) | 3 | -0.614 | inactive
C6orf132 (chromosome 6 open reading frame 132) | 1 | -0.854 | inactive
C6orf132 (chromosome 6 open reading frame 132) | 2 | -0.6 | inactive
C6orf132 (chromosome 6 open reading frame 132) | 3 | 0.0885 | inactive
C6orf132 (chromosome 6 open reading frame 132) | 4 | -0.715 | inactive
C6orf132 (chromosome 6 open reading frame 132) | 5 | -1.06 | inactive
C6orf132 (chromosome 6 open reading frame 132) | 6 | 1.03 | inactive
PXT1 (peroxisomal testis enriched protein 1) | 1 | 1.68 | inactive
PXT1 (peroxisomal testis enriched protein 1) | 2 | -0.757 | inactive
PXT1 (peroxisomal testis enriched protein 1) | 3 | 4.05 | inactive
TRIM6 (tripartite motif containing 6) | 1 | 0.308 | inactive
TRIM6 (tripartite motif containing 6) | 2 | 2.25 | inactive
TRIM6 (tripartite motif containing 6) | 3 | -0.62 | inactive
MEIOC (meiosis specific with coiled-coil domain) | 1 | -0.643 | inactive
MEIOC (meiosis specific with coiled-coil domain) | 2 | -0.0743 | inactive
MEIOC (meiosis specific with coiled-coil domain) | 3 | 0.3 | inactive
NLRP9 (NLR family pyrin domain containing 9) | 1 | 0.125 | inactive
NLRP9 (NLR family pyrin domain containing 9) | 2 | -0.197 | inactive
NLRP9 (NLR family pyrin domain containing 9) | 3 | -0.339 | inactive
CALHM5 (calcium homeostasis modulator family member 5) | 1 | -0.29 | inactive
CALHM5 (calcium homeostasis modulator family member 5) | 2 | 0.137 | inactive
CALHM5 (calcium homeostasis modulator family member 5) | 3 | 4.1 | inactive
PKIB (cAMP-dependent protein kinase inhibitor beta) | 1 | -0.91 | inactive
PKIB (cAMP-dependent protein kinase inhibitor beta) | 2 | -1.16 | inactive
PKIB (cAMP-dependent protein kinase inhibitor beta) | 3 | -0.442 | inactive
POU1F1 (POU class 1 homeobox 1) | 1 | 1.52 | inactive
POU1F1 (POU class 1 homeobox 1) | 2 | 0.807 | inactive
POU1F1 (POU class 1 homeobox 1) | 3 | 0.716 | inactive
KCNMB4 | 1 | 4.38 | inactive
KCNMB4 | 2 | 3.21 | inactive
KCNMB4 | 3 | 0.676 | inactive
ARHGEF40 (Rho guanine nucleotide exchange factor 40) | 1 | -0.168 | inactive
ARHGEF40 (Rho guanine nucleotide exchange factor 40) | 2 | -0.51 | inactive
ARHGEF40 (Rho guanine nucleotide exchange factor 40) | 3 | -0.456 | inactive
ZNF71 (zinc finger protein 71) | 1 | 0.993 | inactive
ZNF71 (zinc finger protein 71) | 2 | -1.26 | inactive
ZNF71 (zinc finger protein 71) | 3 | -0.379 | inactive
